In the supplement of paper PMC8728848:
The other results are listed elsewhere or left out.

Assays:
Assay in all cases: glycan array binding signal (z-score within array); higher = stronger binding
Conditions in all cases: glycan notation: IUPAC condensed, linker removed
[1] = molecular target: Neu5Ac(a2-6)Gal(b1-4)GlcNAc(b1-2)Man(a1-3)[Neu5Ac(a2-3)Gal(b1-4)GlcNAc(b1-2)Man(a1-6)]Man(b1-4)GlcNAc(b1-4)GlcNAc
Summary of the method: (§1)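 The Consortium for Functional Glycomics database supplied 3228 glycan arrays, of which those lacking an available protein sequence were dropped. The binding signal, a within-array Z-score, was averaged across arrays of the same protein sequence and across linkers. Negative scores can be read as non-binding.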

[2] = molecular target: Neu5Ac(a2-6)Gal(b1-4)GlcNAc(b1-2)Man(a1-3)[Neu5Ac(a2-6)Gal(b1-4)GlcNAc(b1-2)Man(a1-6)]Man(b1-4)GlcNAc(b1-4)GlcNAc
Summary of the method: as §1

[3] = molecular target: Neu5Ac(a2-6)Gal(b1-4)GlcNAc(b1-2)Man(a1-3)[Neu5Ac(a2-6)Gal(b1-4)GlcNAc(b1-2)Man(a1-6)]Man(b1-4)GlcNAc(b1-4)[Fuc(a1-6)]GlcNAc
Summary of the method: as §1

[4] = molecular target: Neu5Ac(a2-6)Gal(b1-4)GlcNAc(b1-2)Man(a1-6)Man(b1-4)GlcNAc(b1-4)GlcNAc
Summary of the method: as §1

[5] = molecular target: Neu5Ac(a2-6)Gal(b1-4)GlcNAc(b1-2)Man(a1-6)[Gal(b1-4)GlcNAc(b1-2)Man(a1-3)]Man(b1-4)GlcNAc(b1-4)GlcNAc
Summary of the method: as §1

[6] = molecular target: Neu5Ac(a2-6)Gal(b1-4)GlcNAc(b1-2)Man(a1-6)[GlcNAc(b1-2)Man(a1-3)]Man(b1-4)GlcNAc(b1-4)GlcNAc
Summary of the method: as §1

[7] = molecular target: Neu5Ac(a2-6)Gal(b1-4)GlcNAc(b1-2)Man(a1-6)[Man(a1-3)]Man(b1-4)GlcNAc(b1-4)GlcNAc
Summary of the method: as §1

[8] = molecular target: Neu5Ac(a2-6)Gal(b1-4)GlcNAc(b1-2)[Neu5Ac(a2-6)Gal(b1-4)GlcNAc(b1-4)]Man(a1-3)[GlcNAc(b1-4)][Neu5Ac(a2-6)Gal(b1-4)GlcNAc(b1-2)[Neu5Ac(a2-6)Gal(b1-4)GlcNAc(b1-6)]Man(a1-6)]Man(b1-4)GlcNAc(b1-4)GlcNAc
Summary of the method: as §1

[9] = molecular target: Neu5Ac(a2-6)Gal(b1-4)GlcNAc(b1-2)[Neu5Ac(a2-6)Gal(b1-4)GlcNAc(b1-4)]Man(a1-3)[GlcNAc(b1-4)][Neu5Ac(a2-6)Gal(b1-4)GlcNAc(b1-4)Man(a1-6)]Man(b1-4)GlcNAc(b1-4)GlcNAc
Summary of the method: as §1

[10] = molecular target: Neu5Ac(a2-6)Gal(b1-4)GlcNAc(b1-2)[Neu5Ac(a2-6)Gal(b1-4)GlcNAc(b1-6)]Man(a1-6)[Neu5Ac(a2-6)Gal(b1-4)GlcNAc(b1-2)Man(a1-3)][GlcNAc(b1-4)]Man(b1-4)GlcNAc(b1-4)GlcNAc
Summary of the method: as §1

[11] = molecular target: Neu5Ac(a2-6)Gal(b1-4)GlcNAc(b1-3)Gal(b1-3)GlcNAc
Summary of the method: as §1

[12] = molecular target: Neu5Ac(a2-6)Gal(b1-4)GlcNAc(b1-3)Gal(b1-4)GlcNAc
Summary of the method: as §1

[13] = molecular target: Neu5Ac(a2-6)Gal(b1-4)GlcNAc(b1-3)Gal(b1-4)GlcNAc(b1-2)Man(a1-3)[Neu5Ac(a2-6)Gal(b1-4)GlcNAc(b1-3)Gal(b1-4)GlcNAc(b1-2)Man(a1-6)]GalNAc
Summary of the method: as §1

[14] = molecular target: Neu5Ac(a2-6)Gal(b1-4)GlcNAc(b1-3)Gal(b1-4)GlcNAc(b1-3)Gal(b1-4)GlcNAc
Summary of the method: as §1

[15] = molecular target: Neu5Ac(a2-6)Gal(b1-4)GlcNAc(b1-3)Gal(b1-4)GlcNAc(b1-3)Gal(b1-4)GlcNAc(b1-2)Man(a1-3)[Neu5Ac(a2-6)Gal(b1-4)GlcNAc(b1-3)Gal(b1-4)GlcNAc(b1-3)Gal(b1-4)GlcNAc(b1-2)Man(a1-6)]GalNAc
Summary of the method: as §1

[16] = molecular target: Neu5Ac(a2-6)Gal(b1-4)GlcNAc(b1-3)Gal(b1-4)GlcNAc(b1-3)GalNAc
Summary of the method: as §1

[17] = molecular target: Neu5Ac(a2-6)Gal(b1-4)GlcNAc(b1-3)Gal(b1-4)GlcNAc(b1-3)[Neu5Ac(a2-6)Gal(b1-4)GlcNAc(b1-3)Gal(b1-4)GlcNAc(b1-6)]GalNAc
Summary of the method: as §1

[18] = molecular target: Neu5Ac(a2-6)Gal(b1-4)GlcNAc(b1-3)Gal(b1-4)GlcNAc(b1-6)[Gal(b1-3)]GalNAc
Summary of the method: as §1

[19] = molecular target: Neu5Ac(a2-6)Gal(b1-4)GlcNAc(b1-3)Gal(b1-4)[Fuc(a1-3)]GlcNAc(b1-3)Gal(b1-4)[Fuc(a1-3)]GlcNAc
Summary of the method: as §1

[20] = molecular target: Neu5Ac(a2-6)Gal(b1-4)GlcNAc(b1-3)GalNAc
Summary of the method: as §1

[21] = molecular target: Neu5Ac(a2-6)Gal(b1-4)GlcNAc(b1-3)[Neu5Ac(a2-6)Gal(b1-4)GlcNAc(b1-6)]GalNAc
Summary of the method: as §1

[22] = molecular target: Neu5Ac(a2-6)Gal(b1-4)GlcNAc(b1-6)GalNAc
Summary of the method: as §1

[23] = molecular target: Neu5Ac(a2-6)Gal(b1-4)GlcNAc(b1-6)[Gal(b1-3)GlcNAc(b1-3)]Gal(b1-4)Glc
Summary of the method: as §1

[24] = molecular target: Neu5Ac(a2-6)Gal(b1-4)GlcNAc(b1-6)[Gal(b1-3)]GalNAc
Summary of the method: as §1

[25] = molecular target: Neu5Ac(a2-6)Gal(b1-4)GlcNAc6S
Summary of the method: as §1

Neu5Ac(a2-6)GalNAc = molecular target: Neu5Ac(a2-6)GalNAc
Summary of the method: as §1

[26] = molecular target: Neu5Ac(a2-6)GalNAc(b1-4)GlcNAc
Summary of the method: as §1

[27] = molecular target: Neu5Ac(a2-6)GalNAc(b1-4)GlcNAc6S
Summary of the method: as §1

[28] = molecular target: Neu5Ac(a2-6)GlcNAc(b1-4)GlcNAc
Summary of the method: as §1

[29] = molecular target: Neu5Ac(a2-6)GlcNAc(b1-4)GlcNAc(b1-4)GlcNAc
Summary of the method: as §1

B1: GS7807Q-bfa-507-19-507 (Bacteroides fragilis) (protein)
chain: ASCNKFDDLNTNPDAATKVTAPMLATKLILNITQQGSAKNFVYHSMLSKQIAWSENASDEQYNLFGRTDFDGYTILTNCQKMVDAANEGDKDSYAALAKFMKAYKLFYKSLEVGDIPYSDALKGEEGVQKPKYDTQKEVMRQVLEDLEEAYTLFSSGSDFDGDPIFGGDTENWKKTVVAFELKVLTHLCKKDTDADLKVKERFARLVSSGSLMTSNADNFQLVYSNKAGQLYPFYYTQNKHSDYLMMSSVIIDNLKKFNDYRMFYYASPAKAQTDKGIKDSEWDAYLSIDPSDSYSNISVLYGKGEFCLANLRYTRVPEGEPLMRLSYAEQNFILAEGAVRGWISEDASTYYKKGIEASMNFIADNTPDKEEYTHGRTITQEYIQEYLAQPVIQLSGDKEKDLEMILLQRYLASFLQHPYDAYYDYRRTGYPVLPINPSTNLNTEKNKIPTRWMYPEAEFSYNPDNANEAVQRQYNGSDDVNKLMWILQ
glycan array binding signal (z-score) [1]: -0.916
glycan array binding signal (z-score) [2]: -0.28
glycan array binding signal (z-score) [3]: -0.449
glycan array binding signal (z-score) [4]: -0.353
glycan array binding signal (z-score) [5]: -0.692
glycan array binding signal (z-score) [6]: -0.158
glycan array binding signal (z-score) [7]: -0.746
glycan array binding signal (z-score) [8]: 0.811
glycan array binding signal (z-score) [9]: 0.481
glycan array binding signal (z-score) [10]: 0.863
glycan array binding signal (z-score) [11]: -1.24
glycan array binding signal (z-score) [12]: -0.739
glycan array binding signal (z-score) [13]: 0.98
glycan array binding signal (z-score) [14]: 0.206
glycan array binding signal (z-score) [15]: 3.17
glycan array binding signal (z-score) [16]: -0.779
glycan array binding signal (z-score) [17]: 0.237
glycan array binding signal (z-score) [18]: 0.189
glycan array binding signal (z-score) [19]: -0.044
glycan array binding signal (z-score) [20]: 0.841
glycan array binding signal (z-score) [21]: -0.829
glycan array binding signal (z-score) [22]: 0.777
glycan array binding signal (z-score) [23]: 1.67
glycan array binding signal (z-score) [24]: -0.155
glycan array binding signal (z-score) [25]: -0.159
glycan array binding signal (z-score) (Neu5Ac(a2-6)GalNAc): -1.09
glycan array binding signal (z-score) [26]: -0.986
glycan array binding signal (z-score) [27]: 0.074
glycan array binding signal (z-score) [28]: 0.085
glycan array binding signal (z-score) [29]: 0.554
